The experiment in a line: qHTS Assay to Find Inhibitors of Chronic Active B-Cell Receptor Signaling. The note with it: ABC-DLBCL IkBa-CBG/CBR reporter, luminescence ratio (green luciferase fused to IkBa over red control in TMD8 lymphoma cells), 4 h. The method in brief: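 Concentration-response series (up to 46 uM) were applied to TMD8 dual-reporter cells for 4 h at 37C with doxycycline. Green/red ratio, after filter-overlap correction, defined %Activity; red signal alone was normalised to basal cells and zero luminescence.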

The mark [1] stands for this setting: measured here: CBR red luminescence, cell number.

The list shows a part of the results. These are further read-outs of the screen, such as a control signal, another cell line or another target. No call is given for them. Most of these compounds were active or inconclusive in the main read-out, so they are no random draw. The note in brackets gives the kind of curve behind each potency; many fits are weak.

As usually defined, the AC50 is the midpoint of the concentration-response curve, whichever way the signal moves.

`C=CCn1cc(C(=O)OC)c(=O)c2cc(S(=O)(=O)N3CCC(C)CC3)ccc21`: the AC50 under setting [1] was 3.16 µM [falling, partial curve, poor fit].
Same read-out and setting: next, `O=C1C2CC=C(Cl)CC2C(=O)N1CN(Cc1ccco1)CN1C(=O)C2CC=C(Cl)CC2C1=O` (stereo unspecified): 3.55 µM [rising, full curve, poor fit]; `CCCCOc1cccc(/C=N/NC(=O)c2csc(C)c2C)c1`: 3.16 µM [falling, partial curve, poor fit].
Still for that read-out and setting: next, `Cc1c(C(=O)OCCOc2ccccc2)[nH]c2c1C(=O)CCC2`: 29.1 µM [falling, single point].
Regarding `COc1ccc(Sc2nnc(Cc3ccccc3)c3ccccc23)cc1`, the concentration at half-maximal activity (AC50) under setting [1] is 6.31 µM [falling, single point].
Still for that read-out and setting: then `COc1ccc(N2CCN(c3cc(C)c4ccccc4n3)CC2)cc1`, with 6.31 µM [rising, partial curve, poor fit]; and `O=C(Cn1[nH]c(=O)c2ccccc2c1=O)OCC(=O)c1ccc(F)c(F)c1`, with 5.8 µM [falling, partial curve, poor fit]; and `O=c1c2c(nc3nc(COc4ccccc4)[nH]n13)CCC2`, with 1.84 µM [falling, full curve].
The same measure, in the same setting: then `COc1ccc(C(=O)Nc2sc(C)c(C)c2CN2CCOCC2)cc1`, with 32.6 µM [falling, single point]; and `Cc1cccc(C2N3CC4(C(C)C)CN2CC(C(C)C)(C3)C4=O)c1` (stereo unspecified), with 12.6 µM [rising, partial curve, poor fit].
Still for that read-out and setting: then `CCc1cccc2c(C(=O)COC(=O)/C=C/c3ccc(O)c(OC)c3)c[nH]c12`, with 20.6 µM [falling, single point].
On to `O=C(NC(=S)Nc1ccccn1)c1ccc(-c2ccccc2)cc1`, for which the concentration at half-maximal activity (AC50) under setting [1] is 11.2 µM [falling, single point].
`O=C(Nc1nnc(-c2ccco2)o1)c1ccc(S(=O)(=O)N2CCCC2)cc1`: the AC50 under setting [1] is 28.2 µM [falling, single point].
Still for that read-out and setting: then `COc1ccccc1-c1noc(CCC(=O)Nc2ccccc2Cl)n1`, with 18.4 µM [falling, single point]; and `O=C(CN1C(=O)NC2(CCCC2)C1=O)Nc1nc(-c2ccc(F)cc2)cs1`, with 14.1 µM [falling, single point].
`COC(=O)C(C)N1C(=O)S/C(=C/c2cc(C)n(-c3ccccn3)c2C)C1=O` (stereo unspecified): the AC50 is, setting by setting: under setting [1], 29.1 µM [rising, single point]; (measured here: IkBa-CBG green luminescence) 29.1 µM [falling, single point].
Regarding `COC(=O)C(Cc1c[nH]c2ccccc12)NC(=O)C1CC1` (stereo unspecified), the AC50 under setting [1] was 14.1 µM [falling, partial curve, poor fit].
Still for that read-out and setting: then `Cc1cnc(NC(=O)c2ccc(F)c(S(=O)(=O)N3CCOCC3)c2)s1`, with 23.1 µM [falling, single point].
The same measure, in the same setting: then `Cc1c(NS(=O)(=O)c2ccc(N)cc2)c(=O)n(-c2ccccc2)n1C`, with 0.447 µM [rising, full curve, poor fit]; and `CN(Cc1cnn(-c2ccc(F)cc2)c1)Cc1nc(Cc2ccccc2)no1`, with 0.708 µM [rising, full curve, poor fit].
With `CC(C)(C)C(=O)/C(=C/c1ccc(Cl)cc1)n1cncn1`, the AC50 under setting [1] is 12.6 µM [falling, partial curve, poor fit].
For `CCOCCOC(=O)c1[nH]c2c(c1C)C(=O)CC(c1ccc(N(C)C)cc1)C2` (stereo unspecified), the half-maximal activity concentration (AC50) under setting [1] was 8.2 µM [falling, partial curve, poor fit].
Consider `Cc1ccc(CNC(=O)c2cc(-c3cc(C)cc(C)c3O)n[nH]2)cc1`, for which, under setting [1], the AC50 was 10 µM [falling, partial curve, poor fit].
The same measure, in the same setting: next, `COc1cccc(/C=C2\Sc3ccc(C(=O)NCc4cccnc4)cc3N(C)C2=O)c1`: 22.4 µM [falling, single point].
In the case of `O=C(CCc1ccccc1)NCc1ccc(F)cc1`, the AC50 under setting [1] is 20 µM [rising, partial curve, poor fit].
For the molecule `O=C(Nc1ccc(-n2ccc(C(F)(F)F)n2)cc1)c1cccs1`, under setting [1], the AC50 is 17.8 µM [falling, single point].
Still for that read-out and setting: then `CCCOc1ccc(S(=O)(=O)n2cc(Br)c(=O)[nH]c2=O)cc1`, with 31.6 µM [falling, single point]; and `Cc1occc1C(=O)Nc1nnc(-c2cccs2)s1`, with 35.5 µM [falling, single point]; and `CCS(=O)(=O)Nc1ccc(C2=NN(C(=O)c3ccco3)C(c3cccc(F)c3)C2)cc1` (stereo unspecified), with 12.6 µM [falling, single point].
Same read-out and setting: next, `Cc1ccc(-n2sc3ccccc3c2=O)cc1S(=O)(=O)N1CCCCC1`: 2.59 µM [falling, partial curve]; `COCCn1c(SCC(=O)c2c[nH]c3ccccc23)nnc1-c1ccncc1`: 1.3 µM [falling, full curve, poor fit].
On the same count and under the same terms, next, `Cn1nc(-c2ccc(Cl)cc2)c2cc(C(=O)NCC3CCCO3)sc21` (stereo unspecified): 14.1 µM [falling, single point]; `Cc1cc(N/C=C/C(=O)c2ccc(Br)cc2)no1`: 0.206 µM [rising, partial curve, poor fit].
In the case of `CC1(C)COC(c2cccn2Cc2ccccc2Cl)=N1`, under setting [1], the half-maximal activity concentration (AC50) is 35.5 µM [rising, partial curve, poor fit].
On the same count and under the same terms, then `CN(C(=O)CSc1nc2ccc(Br)cc2c(=O)n1Cc1ccco1)C1CCS(=O)(=O)C1` (stereo unspecified), with 0.562 µM [falling, full curve, poor fit]; and `CN(C)CCNC(=O)c1cc2c(s1)-c1ccc(Cl)cc1SC2`, with 11.2 µM [falling, partial curve].
For the molecule `O=C(CCl)NN1C(=O)NC2(CCCCC2)C1=O`, under setting [1], the AC50 was 35.5 µM [rising, single point].
On the same count and under the same terms, then `CCCCN(c1ccccc1)c1ncnc2c1cnn2-c1ccc(Cl)cc1`, with 2 µM [rising, full curve, poor fit].
The same measure, in the same setting: next, `O=c1[nH]c(C2CCN(S(=O)(=O)/C=C/c3ccccc3)CC2)nc2c1nnn2Cc1ccccc1`: 35.5 µM [falling, single point]; `O=C(NNS(=O)(=O)c1ccccc1[N+](=O)[O-])c1ccc(O)cc1`: 7.31 µM [falling, partial curve, poor fit].

The values are drawn from PubChem BioAssay AID493014 (National Center for Advancing Translational Sciences (NCATS), 2011).
